# Results: PubChem BioAssay AID1568 (National Center for Advancing Translational Sciences (NCATS), 2009)
# Inconclusive means that the source gave no clear call. Such entries were picked first, then a sample of the others. Potencies of inconclusive entries are doubtful fits and often do not repeat. The source made the active and inactive calls. The call rests on the fitted dose curve; in most records, active means well fitted curve in the direction sought with a large enough effect; inconclusive means small, poorly fitted or top-dose-only effect, or effect the other way, or another doubt; inactive means no such curve, though single readings can be large or run the other way.
# Assay: Cell Viability Secondary Assay to Characterize qHTS Inhibitors of the Interaction of Thyroid Hormone Receptor and Steroid Receptor Coregulator 2
# Conditions: cell viability counter-screen, qHTS titration; series mostly up to 29.9 µM
# Excerpt: NIH Molecular Libraries Probe Production Network [MLPCN]
# NIH Chemical Genomics Center [NCGC]
# Assay Provider: R. Kip Guy, St. Jude Children's Research Hospital
# Thyroid receptor (TR) regulates many homeostatic processes including basal metabolism, cardiovascular function, body weight, and lipid trafficking. TR modulators are potential therapeutics for obesity and hyperlipidemias but current thyroid analogs have undesirable side effects, particularly cardiac stimulation. This secondary assay characterized selected actives identified in the qHTS for Inhibitors of the Interaction of Thyroid Hormone Receptor and Steroid Receptor Coregulator 2. The human follicular thyroid carcinoma cell line WRO (kindly provided by Dr. M. D. Ringel) stably expresses TRbeta and a luciferase reporter gene fused to TR response element. The effect of compounds on the viability of these cells was assessed by measuring ATP levels. Compounds that reduce cell viability are likely cytotoxic.
# NCGC Assay Protocol Summary:
# Cells were maintained in RPMI 1640 culture medium supplemented with 10% heat-inactivated FBS, 0.33 mg/ml hygromycin, 0.33 mg/ml geneticin, 50 units/ml penicillin, 50 ug/ml streptomycin. Cells were harvested and resuspended at 330,000 cells/ml in assay medium (50% DMEM 50% F-12 medium without Phenol-Red (Cellgro #16-405-CV), L-glutamine, 10% heat inactivated and charcoal treated FBS, 100 uM non-essential amino acid, 50 units/ml penicillin, 50 ug/ml streptomycin). Cells were dispensed at 10,000 cells/30 ul/well into 384 well plates (Corning 3917) and incubated 12 h at 37 C and 5% CO2. Compounds and T3 (100nM final concentration) were added using a pin tool and plates were incubated 16 h incubation at 37 C and 5% CO2. Following incubation, plates were equilibrated at ambient temperature for 30 min, 20 ul of CellTiter-Glo (Promega) was added and luminescence was detected by an EnVision (PerkinElmer).
row,Structure (SMILES),Potency
1,COc1cc(/C=C(\C#N)C(=O)NCC2CCCO2)ccc1OCCC(C)C (stereo unspecified),"inconclusive: 35.5 nM [rising, full curve, poor fit]"
2,COc1cc(NC(C)CCCN)c2ncccc2c1 (stereo unspecified),active: 22400 nM
3,O=C(O)/C=C/C(=O)Nc1ccc(OC(F)(F)F)cc1Br,inactive
4,O=C1CCCC(O)=C1N=Nc1cccc(S(=O)(=O)N2CCOCC2)c1,"inconclusive: 50.1 nM [rising, full curve, poor fit]"
5,CN1N=C(C(C)(C)C)CC1=O,"inconclusive: 3980 nM [cytotoxic, partial curve, poor fit]"
6,CC(C)(C)N1C(=O)Cc2c1nc(N)c1c(N)nc(N3CCCCC3CO)c(C#N)c21 (stereo unspecified),"inconclusive: 12600 nM [cytotoxic, partial curve, poor fit]"
7,Cc1[nH][nH]c(=O)c1C(c1ccc(-c2ccc(Cl)c(Cl)c2)o1)c1c(C)[nH][nH]c1=O,"inconclusive: 79.4 nM [rising, full curve, poor fit]"
8,Cn1c(=O)[nH]c2nnc(-c3ccc(Cl)c(Cl)c3)nc2c1=O,inactive
9,CN1CCc2ccc3c4c2[C@]1(C)Cc1cccc(c1-4)OCO3,active: 8910 nM
10,CCC(CNc1cc(OC)cc2cccnc12)NC1CCCCC1 (stereo unspecified),"inconclusive: 25100 nM [cytotoxic, single point]"
11,CCN(CC)S(=O)(=O)c1cccc(N=NC2=C(O)CCCC2=O)c1,"inconclusive: 398 nM [cytotoxic, full curve, poor fit]"
12,Cn1c(NNC(=O)c2c(F)cccc2F)cc(=O)n(C)c1=O,"inconclusive: 44.7 nM [rising, full curve, poor fit]"
13,COC(=O)/C(=C/Nc1ccc(O)cc1)[N+](=O)[O-],"inconclusive: 22400 nM [cytotoxic, single point]"
14,CN1c2ccccc2C(C)(C)C12C=Nc1c(ccc3ccccc13)O2 (stereo unspecified),"inconclusive: 17800 nM [cytotoxic, partial curve, poor fit]"
15,COc1ccc2c(c1)-c1nc(/N=C/c3c(O)ccc4ccccc34)sc1CC2,inactive
16,Cc1cc2c(NC(=O)Nc3ccccc3)cccc2nn1,inactive

# Reprinted at random: two entries already listed, in no set order.
row,Structure (SMILES),Potency
1,COc1cc(/C=C(\C#N)C(=O)NCC2CCCO2)ccc1OCCC(C)C (stereo unspecified),"inconclusive: 35.5 nM [rising, full curve, poor fit]"
8,Cn1c(=O)[nH]c2nnc(-c3ccc(Cl)c(Cl)c3)nc2c1=O,inactive

# Carrying on:

row,Structure (SMILES),Potency
1,CN1c2ccccc2C(C)(C)C12C=Nc1c(cc(N3CCOCC3)c3ccccc13)O2 (stereo unspecified),inactive
2,O=C1CNC(=S)N1c1nc(-c2ccccc2)cs1,"inconclusive: 22.4 nM [cytotoxic, full curve, poor fit]"
3,Cc1ccccc1Nc1cc2ccccc2c(=O)[nH]1,"inconclusive: 15800 nM [cytotoxic, partial curve]"
4,CCCc1nc2c(=O)n(C)c(=O)nc-2n(C)n1,active: 794 nM
5,COc1cc(NCCCC(C)N)c2ncccc2c1 (stereo unspecified),"inconclusive: 11200 nM [cytotoxic, full curve]"
6,Nc1cc(N)c(OCC(F)(F)F)cc1OCC(F)(F)F,active: 14100 nM
7,CCOc1cc(C(c2c(C)[nH][nH]c2=O)c2c(C)[nH][nH]c2=O)ccc1OC(=O)c1cccc([N+](=O)[O-])c1,inactive
8,CCOC(=O)C(NC(=O)Nc1ccc(O)cc1)(c1ccccc1)C(F)(F)F (stereo unspecified),inactive
9,Cc1cc(N=Cc2c(O)ccc3ccccc23)no1,inactive
10,CCCCOc1ccc(C(=O)CCN2CCCCC2)cc1,"inconclusive: 15800 nM [cytotoxic, partial curve, poor fit]"
11,COc1ccc2nc3cccc(OC)c3nc2c1,"inconclusive: 794 nM [cytotoxic, full curve, poor fit]"
12,O=c1[nH]c(Nc2ccc(F)cc2)cc2ccccc12,"inconclusive: 1000 nM [cytotoxic, full curve, poor fit]"
13,CC1=NN(c2ccc(F)cc2)C(=O)C1C(c1cccc(O)c1)c1c(C)[nH]n(-c2ccc(F)cc2)c1=O (stereo unspecified),inactive
14,O=c1[nH]c(Nc2ccccc2)cc2ccccc12,"inconclusive: 56.2 nM [rising, full curve, poor fit]"
15,O=C(Nc1nc2ccc(Cl)cc2s1)c1ccc(N2CCCCC2)c([N+](=O)[O-])c1,"inconclusive: 70.8 nM [rising, full curve]"
